Reference: PubChem BioAssay AID504467 (National Center for Advancing Translational Sciences (NCATS), 2011)
Hit rate of the full screen: of about 330,000 compounds, about 7,700 (2.3%) were called active. Inconclusive results, whose numbers are uncertain, are shown with a selection of clear calls. Calls follow the shape of the dose curve; as a rule, active = well fitted inhibition curve with a large enough effect; inconclusive = small, poorly fitted or top-dose-only effect, or effect the other way; inactive = flat fitted curve, though single readings scatter. Potencies of inconclusive entries are doubtful fits and often do not repeat.

Assay: qHTS screen for small molecules that inhibit ELG1-dependent DNA repair in human embryonic kidney (HEK293T) cells expressing luciferase-tagged ELG1; also: nearly all actives have a fitted effect of over 55% in size
Settings: HEK293T ELG1-luciferase reporter, luminescence, 16 h, DNA damage induced by 5-fluorouridine; series mostly up to 46.1 µM
Outline: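 Step one: seed 2,000 cells per well. Step two: pin-transfer compound or DMSO alongside 5-fluorouridine. Step three: incubate 16 hr, 37 °C, 5% CO2. Step four: add ONE-Glo, wait 30 min, read luminescence.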
Potency is read from the fitted curve at half-maximal effect.

Row | Structure (SMILES) | Potency
1 | COC(=O)c1ccc(C)c(NC(=O)CCSc2ccc(C)cc2)c1 | inconclusive: 18.4 µM [inhibitor, single point]
2 | O=C(CCc1nc2ccccc2s1)Nc1ccccc1 | inactive
3 | CCn1c(Cc2ccc(OC)cc2)nnc1SCC(=O)NC1CCCCC1 | inconclusive: 29.1 µM [inhibitor, single point]
4 | COc1ccc(NC(=O)c2ccco2)c(NC(=O)c2ccc([N+](=O)[O-])cc2)c1 | inconclusive: 5.8 µM [inhibitor, partial curve]
5 | COc1ccc(CCNC(=O)C(=O)NCC2OCCN2C(=O)c2ccc(Cl)cc2)cc1OC (stereo not drawn) | inconclusive: 32.6 µM [inhibitor, single point]
6 | Cc1nc(-c2ccc3c(c2)OCCCO3)cs1 | inconclusive: 6.51 µM [activator, full curve]
7 | Cc1cc(NC(=O)CCSc2ccccc2)ccc1Br | inconclusive: 20.6 µM [activator, single point]
8 | c1csc(-c2cn3ccc4ccccc4c3n2)c1 | active: 16.4 µM
9 | COc1ccc(NC(=O)Cn2ccc(C(F)(F)F)n2)cc1S(=O)(=O)N1CCOCC1 | inactive
10 | CCOC(=O)c1cccnc1SCC(=O)N(CC)c1cccc(C)c1 | inactive
11 | O=C(/C=C/c1ccc(S(=O)(=O)N2CCOCC2)cc1)NCc1ccc(Cl)cc1 | inactive
12 | O=C1CCN=C(Nc2ccc(F)cc2)N1Cc1ccccc1 | inconclusive: 14.6 µM [activator, single point]
13 | O=C(NCc1ccccc1)/C(=C/c1ccccc1)NC(=O)c1ccco1 | inconclusive: 14.6 µM [activator, partial curve]
14 | COc1ccc(OC)c(NC(=O)C(=O)c2cn(CC(=O)N3CCCC3)c3ccccc23)c1 | active: 11.6 µM
15 | COc1ccc(C(=O)Nn2c(SCC(=O)NCC3CCCO3)nc3ccccc3c2=O)cc1 (stereo not drawn) | inconclusive: 0.291 µM [activator, partial curve, poor fit]
16 | O=C(Nc1ccc(NC(=O)C2CCCCC2)nc1)c1ccco1 | inconclusive: 16.4 µM [activator, partial curve]
17 | CN(CC(=O)NCCc1ccccc1)Cc1ccco1 | inconclusive: 16.4 µM [activator, partial curve]
18 | N#CC1=C(N)NC(SCC(=O)c2ccc(Br)cc2)=C(C#N)C12CCCCC2 | inconclusive: 29.1 µM [inhibitor, single point]
19 | CCN(CC)C(=O)c1cc2cc([N+](=O)[O-])ccc2s1 | inconclusive: 0.206 µM [inhibitor, full curve, poor fit]
20 | O=C1C[C@H](c2ccc(O)cc2)Oc2cc(O[C@@H]3O[C@H](CO)[C@@H](O)[C@H](O)[C@H]3O)cc(O[C@@H]3O[C@H](CO)[C@@H](O)[C@H](O)[C@H]3O)c21 | inconclusive: 23.1 µM [activator, single point]
21 | Cc1nn(CCO)c2nc(-c3cccs3)cc(C(F)(F)F)c12 | inconclusive: 23.1 µM [inhibitor, partial curve]
22 | O=C(COC(=O)c1c[nH]c(=O)[nH]c1=O)Nc1ccccc1 | inactive
23 | O=C(Nc1ccccc1)c1cnc(-c2ccccc2)nc1-c1ccccc1 | inconclusive: 4.61 µM [inhibitor, single point]

Row | Structure (SMILES) | Potency
24 | COCCn1nnnc1C(c1ccccn1)N1CCN(c2cc(Cl)ccc2C)CC1 (stereo not drawn) | inactive
25 | CCn1c(=O)c(C(=O)Nc2ncccc2O)c(O)c2ccccc21 | inconclusive: 2.24 µM [activator, full curve]
26 | COc1ccccc1NC(=O)COC(=O)c1ccc2c(c1)nc(C)n2-c1ccccc1 | inconclusive: 18.4 µM [inhibitor, single point]
27 | CC(C)c1ccc(NC(=O)COC(=O)c2c[nH]c(=O)[nH]c2=O)cc1 | inconclusive: 20.6 µM [activator, single point]
28 | CCOC(=O)[C@@H]1[C@H]2COc3cc(OC)ccc3[C@H]2N2C(=O)N(c3ccc(Br)cc3)C(=O)[C@]12C | inconclusive: 23.1 µM [inhibitor, partial curve]
29 | CCC(C)(C)NC(=O)/C=C/c1cccs1 | inconclusive: 16.4 µM [activator, single point]
30 | CCC(=O)Nc1c(-c2ccc(C)cc2)nc2ccc(C)cn12 | inactive
31 | Cc1noc(C)c1NC(=O)Nc1cccc2c1O[C@@H](CN(C)C)[C@@H](C)CN([C@H](C)CO)C2=O | inconclusive: 16.4 µM [activator, partial curve, poor fit]
32 | COc1ccc(NC(=S)N(CCCN2CCOCC2)Cc2cn(C)c3ccccc23)cc1OC | inactive
33 | O=C(O)c1ccc(-c2ccc(OS(=O)(=O)c3ccccc3F)cc2)cc1 | inconclusive: 29.1 µM [activator, single point]
34 | COc1ccc(-c2ccc(C3C(C#N)=C(N)Oc4n[nH]c(C)c43)o2)cc1 (stereo not drawn) | inactive
35 | COc1cccc(-c2nn(C)c3sc(C(=O)N4CCOCC4)cc23)c1 | active: 18.4 µM
36 | Cc1ccc(C(=O)Nc2ccc(N3CCCC3)cc2)cc1 | inconclusive: 5.17 µM [activator, partial curve]
37 | CC(C)(C)c1ccc(C(=O)Nc2ccc(Cl)cc2)cc1 | inconclusive: 4.61 µM [activator, partial curve]
38 | O=C(NC1c2ccccc2-c2ccccc21)N1CCCCC1 | inactive
39 | O=C(CC1C(=O)NCCN1CC1CCCCC1)NCc1ccc(F)cc1F (stereo not drawn) | inconclusive: 5.17 µM [activator, partial curve]
40 | C/C(=N\Nc1nc(-c2ccc(C)cc2)nc2ccccc12)c1ccc([N+](=O)[O-])cc1 | inactive
41 | S=c1nc(NCc2cccc(Cl)c2)c2ccccc2[nH]1 | inactive
42 | O=C(O)CSc1ncnc2sc3c(c12)CCC3 | inconclusive: 35.5 µM [inhibitor, single point]
43 | COc1ccc(-n2nc(C(=O)NCC(=O)Nc3cccc(NC(C)=O)c3)c3ccccc3c2=O)cc1 | inconclusive: 20.6 µM [inhibitor, single point]
44 | CCN(C(=O)c1cccnc1SC)C12CC3CC(CC(C3)C1)C2 | inactive
45 | CCOC(CNc1ncnc2sc(-c3ccccc3)cc12)OCC | inconclusive: 29.1 µM [inhibitor, single point]
46 | O=c1c2ccccc2nc(/C=C/c2cccc(Br)c2)n1CCCO | active: 14.6 µM

Row | Structure (SMILES) | Potency
47 | CC(=O)Nc1ccc(S(=O)(=O)Nc2ccc(C)c([N+](=O)[O-])c2)cc1 | inconclusive: 9.2 µM [inhibitor, partial curve]
48 | C=CCNC(=O)N1CCCC(C(=O)c2cccc(OC(C)C)c2)C1 (stereo not drawn) | inconclusive: 11.6 µM [activator, partial curve]
49 | CCC(c1nnnn1CCOC)N1CCN(c2nc3ccccc3s2)CC1 (stereo not drawn) | inconclusive: 20.6 µM [inhibitor, partial curve, poor fit]
50 | Cc1ccc(-c2nnn(CC(=O)Nc3ccc(S(=O)(=O)N4CCC(C)CC4)cc3)n2)cc1 | inconclusive: 29.1 µM [activator, single point]
51 | CCOc1ncccc1C(=O)Nc1ccc(-c2ccc3nnc(C)n3n2)cc1 | inconclusive: 2.91 µM [activator, single point]
52 | CCSc1nc(N)c(C#N)c(-c2ccccc2Cl)c1C#N | inconclusive: 16.4 µM [activator, partial curve, poor fit]
53 | NC(=O)c1cc(C(=O)Cc2ccc(Cl)cc2)c[nH]1 | inconclusive: 20.6 µM [activator, partial curve]
54 | O=C(C1CCC(=O)N(C2CC2)C1)N1CCN(c2ccc(Cl)cc2)CC1 (stereo not drawn) | inactive
55 | COc1cccc(NC(=S)N2CCN(C)CC2)c1 | inactive
56 | CCCN1CCN(CCCNC(=S)Nc2ccc(F)cc2)CC1 | inconclusive: 16.4 µM [activator, partial curve, poor fit]
57 | COCCn1c(SCC(=O)NN2C(=O)NC(C)(c3ccccc3)C2=O)nnc1-c1ccncc1 (stereo not drawn) | inconclusive: 25.9 µM [activator, partial curve, poor fit]
58 | Cc1c(C(=O)NCc2ccccn2)sc2nc(-c3ccccc3)cn12 | inconclusive: 29.1 µM [inhibitor, single point]
59 | COc1ccc2nc(Nc3nc(CSc4ccc(C)cc4)cc(=O)[nH]3)nc(C)c2c1 | inconclusive: 13 µM [inhibitor, partial curve, poor fit]
60 | COc1ccccc1Nc1nc(NCC2CCCO2)c2ccccc2n1 (stereo not drawn) | inconclusive: 29.1 µM [inhibitor, single point]
61 | CCOc1ccc(CCNC(=O)Cc2ccc(NC3=NC4CS(=O)(=O)CC4S3)cc2)cc1OCC (stereo not drawn) | inconclusive: 13 µM [activator, partial curve, poor fit]
62 | COc1ccc(-n2ncc3c(NCCCN4CCOCC4)ncnc32)cc1 | inconclusive: 4.61 µM [activator, partial curve]
63 | O=Cc1ccc(OC(=O)c2cc(Cl)nc3ccccc23)cc1 | inactive
64 | COc1cccc(CNc2nccs2)c1O | inconclusive: 0.562 µM [activator, single point]
65 | Cc1cc(C)c2sc(NC(=O)C3CC3)nc2c1 | inconclusive: 20.6 µM [activator, partial curve]
66 | COC(=O)C1=C(C)NC(C)=C(C(=O)OC)C1C(=O)OCC(=O)c1ccc(Br)cc1 | inconclusive: 10.3 µM [inhibitor, partial curve, poor fit]
67 | CCCc1ccc(OCC(=O)Nc2cc(S(=O)(=O)CC)ccc2O)cc1 | inactive
68 | O=C(CC1(O)C(=O)Nc2ccccc21)c1ccc(-n2cnnn2)cc1 (stereo not drawn) | inconclusive: 23.1 µM [activator, partial curve, poor fit]

Copied from the list.
For Potency, O=Cc1ccc(OC(=O)c2cc(Cl)nc3ccccc23)cc1 is entered as inactive
For Potency, CC(=O)Nc1ccc(S(=O)(=O)Nc2ccc(C)c([N+](=O)[O-])c2)cc1 is entered as inconclusive: 9.2 µM [inhibitor, partial curve]
For Potency, O=C(C1CCC(=O)N(C2CC2)C1)N1CCN(c2ccc(Cl)cc2)CC1 (stereo not drawn) is entered as inactive
For Potency, COc1ccc(-n2ncc3c(NCCCN4CCOCC4)ncnc32)cc1 is entered as inconclusive: 4.61 µM [activator, partial curve]
For Potency, COc1ccccc1Nc1nc(NCC2CCCO2)c2ccccc2n1 (stereo not drawn) is entered as inconclusive: 29.1 µM [inhibitor, single point]
